From the supplement of paper PMC12823440, “Inhibitors supercharge kinase turnover through native proteolytic circuits” (Nature, 2025)
Some of the results follow. The calls rarely recur for the same compound in another form.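 Kinases, fused to nanoluciferase, were expressed in K562 cells; luminescence was measured every 4 h from 2 to 18 h as percent of control (DMSO = 100%, positive control = 0%). A time point is decreased if signal falls significantly (2 sigma). Hits were called by the authors by a rule that is not shown; the count of time points alone does not decide it.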

Chains of the proteins cited; added tags and fusions are not shown. Lines headed by an entry give the natural chain unless they say otherwise; changes in a name come on top.
UniProt Q05397, whole entry, looked up: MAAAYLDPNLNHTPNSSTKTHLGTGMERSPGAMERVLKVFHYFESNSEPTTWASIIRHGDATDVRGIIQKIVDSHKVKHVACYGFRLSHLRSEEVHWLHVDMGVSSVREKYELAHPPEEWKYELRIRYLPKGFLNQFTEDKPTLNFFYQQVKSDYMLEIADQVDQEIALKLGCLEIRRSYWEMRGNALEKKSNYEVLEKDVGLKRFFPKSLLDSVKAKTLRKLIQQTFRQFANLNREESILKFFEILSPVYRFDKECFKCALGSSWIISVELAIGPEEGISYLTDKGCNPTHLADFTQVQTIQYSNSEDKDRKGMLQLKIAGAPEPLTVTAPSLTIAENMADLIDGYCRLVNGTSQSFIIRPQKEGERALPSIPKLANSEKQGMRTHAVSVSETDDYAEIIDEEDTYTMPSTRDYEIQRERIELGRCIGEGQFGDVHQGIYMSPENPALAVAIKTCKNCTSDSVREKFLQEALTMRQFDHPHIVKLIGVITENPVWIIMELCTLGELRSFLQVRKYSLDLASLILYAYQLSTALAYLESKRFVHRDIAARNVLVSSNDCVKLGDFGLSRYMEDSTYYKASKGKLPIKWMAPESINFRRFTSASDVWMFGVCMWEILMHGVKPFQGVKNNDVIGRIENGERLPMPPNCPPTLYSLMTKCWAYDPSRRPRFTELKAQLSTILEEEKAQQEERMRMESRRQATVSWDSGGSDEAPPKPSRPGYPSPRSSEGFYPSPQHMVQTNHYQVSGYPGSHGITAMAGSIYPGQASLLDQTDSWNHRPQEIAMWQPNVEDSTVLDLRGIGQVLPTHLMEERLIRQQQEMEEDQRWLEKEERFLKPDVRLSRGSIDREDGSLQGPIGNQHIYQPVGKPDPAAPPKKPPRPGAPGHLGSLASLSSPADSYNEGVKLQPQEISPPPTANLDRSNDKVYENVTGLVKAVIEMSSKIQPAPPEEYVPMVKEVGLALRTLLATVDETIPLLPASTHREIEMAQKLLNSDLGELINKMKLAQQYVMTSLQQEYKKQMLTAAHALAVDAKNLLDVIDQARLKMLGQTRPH
UniProt Q14289, whole entry, looked up: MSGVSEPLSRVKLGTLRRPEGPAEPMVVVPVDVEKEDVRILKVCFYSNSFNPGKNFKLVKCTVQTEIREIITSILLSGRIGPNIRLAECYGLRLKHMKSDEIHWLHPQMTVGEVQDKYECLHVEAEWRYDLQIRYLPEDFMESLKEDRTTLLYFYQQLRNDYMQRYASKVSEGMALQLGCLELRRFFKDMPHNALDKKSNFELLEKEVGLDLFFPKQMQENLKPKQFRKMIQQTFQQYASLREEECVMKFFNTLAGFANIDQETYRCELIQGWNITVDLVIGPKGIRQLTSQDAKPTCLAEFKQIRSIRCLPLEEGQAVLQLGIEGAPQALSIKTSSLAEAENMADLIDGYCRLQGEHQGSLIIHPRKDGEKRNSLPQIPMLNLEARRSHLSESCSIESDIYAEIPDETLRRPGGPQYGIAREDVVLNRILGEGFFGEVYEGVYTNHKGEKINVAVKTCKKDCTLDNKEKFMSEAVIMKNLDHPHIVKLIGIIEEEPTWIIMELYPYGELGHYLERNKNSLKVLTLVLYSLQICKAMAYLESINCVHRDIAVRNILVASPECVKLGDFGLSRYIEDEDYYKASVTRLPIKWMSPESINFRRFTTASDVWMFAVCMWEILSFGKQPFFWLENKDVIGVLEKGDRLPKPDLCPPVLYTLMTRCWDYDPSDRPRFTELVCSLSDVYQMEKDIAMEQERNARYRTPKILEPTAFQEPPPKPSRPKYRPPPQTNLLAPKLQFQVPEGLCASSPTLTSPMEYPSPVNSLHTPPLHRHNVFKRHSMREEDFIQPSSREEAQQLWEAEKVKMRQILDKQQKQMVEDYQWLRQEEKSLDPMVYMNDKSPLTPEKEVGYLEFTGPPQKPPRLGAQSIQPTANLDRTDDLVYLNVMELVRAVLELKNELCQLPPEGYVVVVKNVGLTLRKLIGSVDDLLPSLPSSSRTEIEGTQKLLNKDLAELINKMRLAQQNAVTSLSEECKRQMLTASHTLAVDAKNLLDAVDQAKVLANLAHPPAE
UniProt P07949, whole entry, looked up: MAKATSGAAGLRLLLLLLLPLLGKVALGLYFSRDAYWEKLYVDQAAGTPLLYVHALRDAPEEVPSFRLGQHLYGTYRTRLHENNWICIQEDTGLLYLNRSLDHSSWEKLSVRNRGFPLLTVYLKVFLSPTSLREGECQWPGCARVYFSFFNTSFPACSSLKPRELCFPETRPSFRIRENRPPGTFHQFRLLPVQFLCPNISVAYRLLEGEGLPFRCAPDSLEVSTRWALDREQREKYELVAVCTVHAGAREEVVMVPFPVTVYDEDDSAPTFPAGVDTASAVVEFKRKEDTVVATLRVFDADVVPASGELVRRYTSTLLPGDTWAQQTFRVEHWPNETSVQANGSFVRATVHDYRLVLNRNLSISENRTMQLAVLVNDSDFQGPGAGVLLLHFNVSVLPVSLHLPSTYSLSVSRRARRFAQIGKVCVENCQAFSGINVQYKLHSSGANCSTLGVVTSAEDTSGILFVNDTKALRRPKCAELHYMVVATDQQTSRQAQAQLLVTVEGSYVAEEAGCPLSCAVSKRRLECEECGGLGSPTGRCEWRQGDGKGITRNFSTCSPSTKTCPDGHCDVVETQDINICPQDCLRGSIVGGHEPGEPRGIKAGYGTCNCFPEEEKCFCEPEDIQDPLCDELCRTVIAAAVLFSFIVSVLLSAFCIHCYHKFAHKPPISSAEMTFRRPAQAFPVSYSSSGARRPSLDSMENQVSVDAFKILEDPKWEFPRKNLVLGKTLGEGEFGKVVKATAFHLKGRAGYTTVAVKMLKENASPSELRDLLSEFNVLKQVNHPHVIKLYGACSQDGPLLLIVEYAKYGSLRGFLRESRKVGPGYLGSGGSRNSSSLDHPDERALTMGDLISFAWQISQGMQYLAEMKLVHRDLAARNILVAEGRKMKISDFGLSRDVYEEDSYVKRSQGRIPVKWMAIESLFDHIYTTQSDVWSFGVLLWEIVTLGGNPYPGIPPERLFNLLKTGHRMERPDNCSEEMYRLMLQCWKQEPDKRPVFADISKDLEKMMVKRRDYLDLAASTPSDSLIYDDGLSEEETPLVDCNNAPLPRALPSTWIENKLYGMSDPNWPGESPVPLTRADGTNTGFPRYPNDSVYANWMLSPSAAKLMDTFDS
UniProt P07949, whole entry M918T, looked up: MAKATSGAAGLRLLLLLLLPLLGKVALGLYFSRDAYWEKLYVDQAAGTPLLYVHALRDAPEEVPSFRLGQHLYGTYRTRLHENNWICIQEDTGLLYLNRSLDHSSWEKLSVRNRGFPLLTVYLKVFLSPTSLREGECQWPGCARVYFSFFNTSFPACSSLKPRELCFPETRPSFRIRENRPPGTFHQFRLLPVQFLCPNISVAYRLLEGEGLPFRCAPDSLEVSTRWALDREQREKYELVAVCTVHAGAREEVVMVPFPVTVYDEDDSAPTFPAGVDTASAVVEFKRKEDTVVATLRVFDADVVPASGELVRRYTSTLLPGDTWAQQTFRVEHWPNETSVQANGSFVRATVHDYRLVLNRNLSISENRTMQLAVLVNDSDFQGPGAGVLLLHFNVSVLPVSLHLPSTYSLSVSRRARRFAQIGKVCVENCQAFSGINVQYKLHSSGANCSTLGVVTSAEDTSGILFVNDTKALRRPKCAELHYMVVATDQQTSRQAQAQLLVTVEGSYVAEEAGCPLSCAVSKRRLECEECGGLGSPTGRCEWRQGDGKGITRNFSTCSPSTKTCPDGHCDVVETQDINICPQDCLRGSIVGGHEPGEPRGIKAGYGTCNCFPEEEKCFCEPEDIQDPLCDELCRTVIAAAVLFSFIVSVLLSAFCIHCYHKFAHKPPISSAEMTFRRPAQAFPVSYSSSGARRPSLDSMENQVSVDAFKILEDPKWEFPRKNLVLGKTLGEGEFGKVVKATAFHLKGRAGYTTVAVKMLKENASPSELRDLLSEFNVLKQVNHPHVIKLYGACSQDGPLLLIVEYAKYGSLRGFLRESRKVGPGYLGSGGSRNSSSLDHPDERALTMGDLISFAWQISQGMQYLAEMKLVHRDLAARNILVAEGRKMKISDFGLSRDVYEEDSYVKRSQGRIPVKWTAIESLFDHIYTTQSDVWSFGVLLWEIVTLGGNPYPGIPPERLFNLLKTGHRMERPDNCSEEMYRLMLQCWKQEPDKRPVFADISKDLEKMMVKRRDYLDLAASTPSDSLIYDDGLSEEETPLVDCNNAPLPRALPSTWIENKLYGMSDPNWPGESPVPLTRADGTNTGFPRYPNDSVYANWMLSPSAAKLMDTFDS
UniProt Q9BRS2: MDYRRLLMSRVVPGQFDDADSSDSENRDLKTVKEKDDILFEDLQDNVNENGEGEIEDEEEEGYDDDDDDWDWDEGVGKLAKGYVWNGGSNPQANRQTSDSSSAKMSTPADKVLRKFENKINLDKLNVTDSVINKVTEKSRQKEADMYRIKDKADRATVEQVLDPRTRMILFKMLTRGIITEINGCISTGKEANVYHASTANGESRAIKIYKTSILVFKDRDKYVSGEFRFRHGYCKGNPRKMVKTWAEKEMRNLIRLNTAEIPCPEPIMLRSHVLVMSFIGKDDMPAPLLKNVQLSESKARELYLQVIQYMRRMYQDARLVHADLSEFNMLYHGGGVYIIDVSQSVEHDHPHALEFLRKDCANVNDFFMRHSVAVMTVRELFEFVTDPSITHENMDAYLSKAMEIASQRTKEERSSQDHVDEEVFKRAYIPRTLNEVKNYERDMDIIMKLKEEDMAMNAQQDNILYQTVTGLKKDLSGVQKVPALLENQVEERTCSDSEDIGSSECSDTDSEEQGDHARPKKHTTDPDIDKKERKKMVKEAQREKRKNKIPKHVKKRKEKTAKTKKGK
UniProt Q13546: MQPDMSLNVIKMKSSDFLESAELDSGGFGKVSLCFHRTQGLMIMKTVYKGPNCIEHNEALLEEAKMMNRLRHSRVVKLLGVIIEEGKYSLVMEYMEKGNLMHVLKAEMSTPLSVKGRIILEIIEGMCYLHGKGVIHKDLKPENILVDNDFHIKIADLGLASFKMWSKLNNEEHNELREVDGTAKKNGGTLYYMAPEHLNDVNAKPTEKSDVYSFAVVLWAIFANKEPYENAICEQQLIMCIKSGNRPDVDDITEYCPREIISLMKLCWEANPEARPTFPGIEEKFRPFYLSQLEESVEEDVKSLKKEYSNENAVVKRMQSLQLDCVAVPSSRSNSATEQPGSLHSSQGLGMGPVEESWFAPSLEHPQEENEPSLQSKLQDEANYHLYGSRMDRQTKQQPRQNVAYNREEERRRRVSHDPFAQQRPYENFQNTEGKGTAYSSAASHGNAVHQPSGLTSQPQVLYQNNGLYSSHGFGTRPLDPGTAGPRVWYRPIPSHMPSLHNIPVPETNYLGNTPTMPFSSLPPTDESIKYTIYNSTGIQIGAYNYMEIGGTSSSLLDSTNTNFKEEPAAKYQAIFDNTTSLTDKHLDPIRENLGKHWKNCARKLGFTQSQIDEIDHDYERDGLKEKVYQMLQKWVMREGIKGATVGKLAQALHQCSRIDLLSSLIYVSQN

Key:
Test in all cases: number of time points (of 5) at which kinase-Nluc abundance scored as decreased, DMSO-normalised (count); higher = more persistent destabilization
Details in all cases: K562; 2-18 h
PRKCA = PRKCA (UniProt P17252)
PTK2 = PTK2 (UniProt Q05397)
PTK2B = PTK2B (UniProt Q14289)
RAF1 = RAF1 (UniProt P04049)
[1] = target: RAF1_S257L (clone: RAF1_mut) (UniProt P04049)
RET = RET (UniProt P07949)
[2] = target: RET_M918T (clone: RET_mut) (UniProt P07949)
RIOK1 = RIOK1 (UniProt Q9BRS2)
RIPK1 = RIPK1 (UniProt Q13546)
RIPK2 = RIPK2 (UniProt O43353)

CC[C@@H]1CN(C(=O)NCC(F)(F)F)C[C@@H]1c1cnc2cnc3[nH]ccc3n12 [Upadacitinib] (10 µM)
number of time points (PRKCA): 0
number of time points (PTK2): 0
number of time points (PTK2B): 0
number of time points (RAF1): 0
number of time points [1]: 0
number of time points (RET): 0
number of time points [2]: 0
number of time points (RIOK1): 0
number of time points (RIPK1): 0
number of time points (RIPK2): 0

COc1ccc(C(=O)c2cn(C(C)C)c3ncnc(N)c23)cc1NC(=O)Nc1ccc(Cl)cc1Cl (10 µM)
number of time points (PRKCA): 0
number of time points (PTK2): 4
number of time points (PTK2B): 0
number of time points (RAF1): 2
number of time points [1]: 0
number of time points (RET): 0
number of time points [2]: 0
number of time points (RIOK1): 0
number of time points (RIPK1): 0
number of time points (RIPK2): 0

Cc1nc(NC(=O)N2CCC[C@H]2C(N)=O)sc1-c1csc(C(C)(C)C)n1 (10 µM)
number of time points (PRKCA): 0
number of time points (PTK2): 0
number of time points (PTK2B): 0
number of time points (RAF1): 0
number of time points [1]: 0
number of time points (RET): 0
number of time points [2]: 0
number of time points (RIOK1): 0
number of time points (RIPK1): 0
number of time points (RIPK2): 0

CC(=O)NCC(=O)N[C@@H](C)C(=O)N[C@@H](CCC(N)=O)C(=O)N[C@@H](Cc1ccccc1)C(=O)N[C@@H](CO)C(=O)N[C@@H](CCCCN)C(=O)N[C@H](C(=O)N[C@@H](C)C(=O)N[C@@H](C)C(=O)N[C@@H](CCCCN)C(=O)O)[C@@H](C)O (10 µM)
number of time points (PRKCA): 0
number of time points (PTK2): 0
number of time points (PTK2B): 0
number of time points (RAF1): 0
number of time points [1]: 0
number of time points (RET): 0
number of time points [2]: 0
number of time points (RIOK1): 0
number of time points (RIPK1): 0
number of time points (RIPK2): 0

C[C@@H](Nc1cc(F)cc(F)c1)c1cc(C(=O)N(C)C)cc2c(=O)cc(N3CCOCC3)oc12 (10 µM)
number of time points (PRKCA): 0
number of time points (PTK2): 0
number of time points (PTK2B): 0
number of time points (RAF1): 0
number of time points [1]: 5
number of time points (RET): 0
number of time points [2]: 0
number of time points (RIOK1): 0
number of time points (RIPK1): 0
number of time points (RIPK2): 0

OCCC#Cc1nc(-c2ccc(F)cc2)c(-c2ccncc2)n1CCCc1ccccc1 (2.5 µM)
number of time points (PRKCA): 0
number of time points (PTK2): 0
number of time points (PTK2B): 0
number of time points (RAF1): 0
number of time points [1]: 0
number of time points (RET): 0
number of time points [2]: 0
number of time points (RIOK1): 0
number of time points (RIPK1): 0
number of time points (RIPK2): 0

C=CC(=O)N[C@H]1CCOC[C@H]1Nc1ncc2cc(-c3c(Cl)c(OC)cc(OC)c3Cl)ccc2n1 [Fisogatinib] (10 µM)
number of time points (PRKCA): 0
number of time points (PTK2): 0
number of time points (PTK2B): 0
number of time points (RAF1): 0
number of time points [1]: 0
number of time points (RET): 0
number of time points [2]: 0
number of time points (RIOK1): 0
number of time points (RIPK1): 0
number of time points (RIPK2): 0

Cc1ncc(F)c(Nc2n[nH]c3c2CN(C(=O)N2C[C@@H](C)N(CC4CCOCC4)C[C@@H]2C)C3(C)C)n1 (10 µM)
number of time points (PRKCA): 0
number of time points (PTK2): 0
number of time points (PTK2B): 0
number of time points (RAF1): 0
number of time points [1]: 0
number of time points (RET): 0
number of time points [2]: 0
number of time points (RIOK1): 0
number of time points (RIPK1): 0
number of time points (RIPK2): 0

CC1=C(C(=O)Nc2ccc3[nH]ncc3c2)C(c2ccc(F)c(C(=O)NCc3ccccn3)c2)NC(=O)N1 (stereo not given) (10 µM)
number of time points (PRKCA): 0
number of time points (PTK2): 0
number of time points (PTK2B): 0
number of time points (RAF1): 0
number of time points [1]: 0
number of time points (RET): 0
number of time points [2]: 0
number of time points (RIOK1): 0
number of time points (RIPK1): 0
number of time points (RIPK2): 0

CC(C)[C@H](CO)Nc1nc(Nc2ccc(C(=O)O)c(Cl)c2)c2ncn(C(C)C)c2n1 [Purvalanol B] (10 µM)
number of time points (PRKCA): 0
number of time points (PTK2): 0
number of time points (PTK2B): 0
number of time points (RAF1): 0
number of time points [1]: 0
number of time points (RET): 0
number of time points [2]: 0
number of time points (RIOK1): 0
number of time points (RIPK1): 0
number of time points (RIPK2): 0

CCC(=O)N1CC[C@H](Nc2ncnc3c2CN(c2cnc(OC)c(C(F)(F)F)c2)CC3)C1 [Leniolisib] (10 µM)
number of time points (PRKCA): 0
number of time points (PTK2): 0
number of time points (PTK2B): 0
number of time points (RAF1): 0
number of time points [1]: 0
number of time points (RET): 0
number of time points [2]: 0
number of time points (RIOK1): 0
number of time points (RIPK1): 0
number of time points (RIPK2): 0

CC(=O)c1cc(O)ccc1O [2,5-Dihydroxyacetophenone] (10 µM)
number of time points (PRKCA): 0
number of time points (PTK2): 0
number of time points (PTK2B): 0
number of time points (RAF1): 0
number of time points [1]: 0
number of time points (RET): 0
number of time points [2]: 0
number of time points (RIOK1): 0
number of time points (RIPK1): 0
number of time points (RIPK2): 0

COc1ccc(-c2cnc3c(-c4cccc5ncccc45)cnn3c2)cc1 (10 µM)
number of time points (PRKCA): 0
number of time points (PTK2): 0
number of time points (PTK2B): 0
number of time points (RAF1): 0
number of time points [1]: 0
number of time points (RET): 0
number of time points [2]: 0
number of time points (RIOK1): 0
number of time points (RIPK1): 0
number of time points (RIPK2): 0

COc1cc(Nc2nc3ccccc3nc2NS(=O)(=O)c2ccc(NC(=O)c3ccc(C)c(OC)c3)cc2)cc(OC)c1 (10 µM)
number of time points (PRKCA): 0
number of time points (PTK2): 0
number of time points (PTK2B): 0
number of time points (RAF1): 0
number of time points [1]: 0
number of time points (RET): 0
number of time points [2]: 0
number of time points (RIOK1): 0
number of time points (RIPK1): 0
number of time points (RIPK2): 0

O=C(c1ccc(NS(=O)(=O)c2cccc3cccnc23)cc1)N1CCN(CC2CC2)CC1 [Mitapivat] (10 µM)
number of time points (PRKCA): 0
number of time points (PTK2): 0
number of time points (PTK2B): 0
number of time points (RAF1): 0
number of time points [1]: 0
number of time points (RET): 0
number of time points [2]: 0
number of time points (RIOK1): 0
number of time points (RIPK1): 0
number of time points (RIPK2): 0

CCS(=O)(=O)c1ccc(Oc2cc(O[C@@H](C)CO)cc(C(=O)Nc3ccn(C)n3)c2)cn1 (10 µM)
number of time points (PRKCA): 0
number of time points (PTK2): 0
number of time points (PTK2B): 0
number of time points (RAF1): 0
number of time points [1]: 0
number of time points (RET): 0
number of time points [2]: 0
number of time points (RIOK1): 0
number of time points (RIPK1): 0
number of time points (RIPK2): 0
